Source: PubChem BioAssay AID1259254 (NCATS, 2017)

Test: 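Finding genes that stop cells copying their DNA twice in one cycle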 (primary screen)
Cell system: human HCT116 colorectal cancer cells
Reagents: single siRNA against human genes
Time to read-out: 3 days
Measured: 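Imaged Hoechst DNA stain sorts each cell into a cycle phase by DNA amount; per plate, G2 fraction set to 0% for non-targeting and 100% for GMNN siRNA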
Reading the numbers: G2 robust z-score: higher = more G2 cells, more excess DNA replication
Hit rule: 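An siRNA counts as active if its G2 robust z-score lies at least 5 MADs above the screen median; here such calls match roughly 38% of GMNN control or more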
This is a random part of about 59,000 reagents. Over the whole deposit, about 1,550 (2.6%) are marked active. 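G2 share is only a proxy for re-replication; each gene was hit by three separate siRNAs, and active genes were retested.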 A number with no mark means an inactive call. The numbers tell different reagents against one gene apart. Not all columns of the deposit are shown. Not stated in the record: the amount of reagent.

BBS12 (GeneID 166379) #1
- G2 robust z-score: 0.00856

BBS12 (GeneID 166379) #2
- G2 robust z-score: -0.569

BBS12 (GeneID 166379) #3
- G2 robust z-score: -0.547

SEPHS1 (GeneID 22929) #1
- G2 robust z-score: -0.243

SEPHS1 (GeneID 22929) #2
- G2 robust z-score: 0.414

SEPHS1 (GeneID 22929) #3
- G2 robust z-score: -0.886

NCBP1 (GeneID 4686) #1
- G2 robust z-score: 0.572

NCBP1 (GeneID 4686) #2
- G2 robust z-score: -0.992

NCBP1 (GeneID 4686) #3
- G2 robust z-score: 1.38

FAM174B (GeneID 400451) #1
- G2 robust z-score: 0.162

FAM174B (GeneID 400451) #2
- G2 robust z-score: -0.934

FAM174B (GeneID 400451) #3
- G2 robust z-score: -0.862

HSPA4L (GeneID 22824) #1
- G2 robust z-score: -0.477

HSPA4L (GeneID 22824) #2
- G2 robust z-score: 0.0131

HSPA4L (GeneID 22824) #3
- G2 robust z-score: 1.27

GINM1 (GeneID 116254) #1
- G2 robust z-score: -0.287

GINM1 (GeneID 116254) #2
- G2 robust z-score: -0.483

GINM1 (GeneID 116254) #3
- G2 robust z-score: 0.894

Taken from above.
HSPA4L (GeneID 22824) #2, G2 robust z-score: 0.0131
Result of HSPA4L (GeneID 22824) #3 in “G2 robust z-score”: 1.27

Additional reagents follow.
ACSM4 (GeneID 341392) #1
- G2 robust z-score: 0.179

ACSM4 (GeneID 341392) #2
- G2 robust z-score: 5.8 (active)

ACSM4 (GeneID 341392) #3
- G2 robust z-score: 0.521

POLR3GL (GeneID 84265) #1
- G2 robust z-score: 0.567

POLR3GL (GeneID 84265) #2
- G2 robust z-score: -0.99

POLR3GL (GeneID 84265) #3
- G2 robust z-score: 0.354

KLHL33 (GeneID 123103) #1
- G2 robust z-score: -0.983

KLHL33 (GeneID 123103) #2
- G2 robust z-score: 2.1

KLHL33 (GeneID 123103) #3
- G2 robust z-score: -0.524

KLHL33 (GeneID 123103) #4
- G2 robust z-score: 0.0262

KLHL33 (GeneID 123103) #5
- G2 robust z-score: 1.83

KLHL33 (GeneID 123103) #6
- G2 robust z-score: -0.515
